Source: US20120034672A1, “[…] LUCIFERASE VARIANT WITH PROLONGED BIOLUMINESCENCE” (priority 2009, published 2012)
Where a chain is given by its changes, count along the chain named. Names and notes keep the numbering of the source.

B1: Y97W: GLuc variant in which tyrosine (Y) at position 97 was mutated to tryptophan (W) (protein)
chain: MGVKVLFALICIAVAEAKPTENNEDFNIVAVASNFATTDLDADRGKLPGKKLPLEVLKEMEANARKAGCTRGCLICLSHIKCTPKMKKFIPGRCHTWEGDKESAQGGIGEAIVDIPEIPGFKDLEPMEQFIAQVDLCVDCTTGCLKGLANVQCSDLLKKWLPQRCATFASKIQGQVDKIKGAGGDKDEL
modifications: GLuc mutant (Y97W)
B2: F89W/I90L: GLuc with isoleucine 90 replaced with leucine and phenylalanine 89 with tryptophan (protein)
chain: B1 chain with F89W, I90L, W97Y
modifications: GLuc mutant (F89W/I90L); named 8990
B3: I90L/I115L: GLuc with isoleucine at positions 90 and 115 replaced with leucine (protein)
chain: B1 chain with I90L, W97Y, I115L
modifications: GLuc mutant (I90L/I115L)

Experiment: Luminescence spectrum of GLuc variants in COS-7 cell lysates (5-minute lysis, spectrophotometer)
Assay type: biochemical
Settings: coelenterazine
Description: Subsequently, cell lysates were prepared from the COS-7 cells in each well (5-minute lysis), and a spectrum was measured in the presence of a luciferase-specific substrate (coelenterazine), using a fluorescence spectrophotometer (F-7000, Hitachi), thereby examining the effect of the introduced mutation. FIGS. 4B-1 and 4C show the results.
Additionally, in the preparation of cell samples, the samples are immersed in a lysis solution for 5 minutes. This allows preparation of non-uniform samples of cells whose organelles are not lysed, by a quick process.

Question: Which luminescence peak does the source give for B1 here?
Answer: 486 nm

Question: For B2, which luminescence peak is on record?
Answer: 481 nm

Question: Which luminescence peak does the source give for B3 here?
Answer: 483 nm
